Assay: Serum cholesterol in treated Apo E-/- mice
Type: in vivo
Conditions: 36 weeks, after 16 weeks of treatment; control 918

Row | Substance | Median cholesterol level at the time of sacrifice
1 | O-chloracetyl-carbamoylfumagillol [TNP-470] | 823 mg/dL
2 | endostatin | 877 mg/dL

From US6740678B2, “Method of treatment of cardiovascular injuries” (Children's Medical Center Corporation, priority 1998, dated 2004)
